Results are given in words; binding and its absence hold for the method and conditions named. In cells and extracts the contact can be indirect. Some binding calls cover weakened binding; strength is not graded here. For some assays here: Where a sequence is shown, tags or fusion partners need not be part of it.
What was measured:
[1] = molecular target: CDC48-Trap-HA (AtCDC48A E581Q, CDC48 mutant with stabilized substrate binding) (Arabidopsis thaliana) (UniProt P54609); assay: co-IP; wild-type Arabidopsis protoplasts transfected with CDC48-Trap-HA (YFP-HA as control); anti-HA resin; IP buffer 25 mM tris-HCl pH 7.5, 150 mM NaCl, 1 mM EDTA, 1% Triton X-100; 4°C; endogenous PsaA and PsbC detected by immunoblot
[2] = molecular target: T1, SP2 (suppressor of ppi1 locus 2) with a C-terminal 6x Myc tag (Arabidopsis thaliana) (UniProt Q5PP51); assay: co-IP; SP2-6Myc transgenic seedlings (wild type as control) analyzed without protoplastation; anti-Myc resin; endogenous PsaA and PsbC detected by immunoblot
T1 sequence: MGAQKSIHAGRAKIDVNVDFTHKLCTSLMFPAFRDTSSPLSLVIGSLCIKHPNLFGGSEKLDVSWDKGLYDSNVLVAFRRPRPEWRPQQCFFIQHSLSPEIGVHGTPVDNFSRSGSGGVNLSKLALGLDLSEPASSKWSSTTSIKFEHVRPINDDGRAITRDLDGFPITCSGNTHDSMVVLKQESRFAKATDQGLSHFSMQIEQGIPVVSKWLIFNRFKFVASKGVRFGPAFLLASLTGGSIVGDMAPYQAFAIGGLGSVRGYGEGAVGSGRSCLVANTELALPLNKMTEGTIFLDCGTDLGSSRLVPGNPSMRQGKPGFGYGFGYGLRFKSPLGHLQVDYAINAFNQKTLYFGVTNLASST

The chains behind the UniProt entries cited, without tags or fusion partners. Where a name states a change or a piece, a line headed by the entry shows the natural chain unless it says otherwise.
UniProt P54609: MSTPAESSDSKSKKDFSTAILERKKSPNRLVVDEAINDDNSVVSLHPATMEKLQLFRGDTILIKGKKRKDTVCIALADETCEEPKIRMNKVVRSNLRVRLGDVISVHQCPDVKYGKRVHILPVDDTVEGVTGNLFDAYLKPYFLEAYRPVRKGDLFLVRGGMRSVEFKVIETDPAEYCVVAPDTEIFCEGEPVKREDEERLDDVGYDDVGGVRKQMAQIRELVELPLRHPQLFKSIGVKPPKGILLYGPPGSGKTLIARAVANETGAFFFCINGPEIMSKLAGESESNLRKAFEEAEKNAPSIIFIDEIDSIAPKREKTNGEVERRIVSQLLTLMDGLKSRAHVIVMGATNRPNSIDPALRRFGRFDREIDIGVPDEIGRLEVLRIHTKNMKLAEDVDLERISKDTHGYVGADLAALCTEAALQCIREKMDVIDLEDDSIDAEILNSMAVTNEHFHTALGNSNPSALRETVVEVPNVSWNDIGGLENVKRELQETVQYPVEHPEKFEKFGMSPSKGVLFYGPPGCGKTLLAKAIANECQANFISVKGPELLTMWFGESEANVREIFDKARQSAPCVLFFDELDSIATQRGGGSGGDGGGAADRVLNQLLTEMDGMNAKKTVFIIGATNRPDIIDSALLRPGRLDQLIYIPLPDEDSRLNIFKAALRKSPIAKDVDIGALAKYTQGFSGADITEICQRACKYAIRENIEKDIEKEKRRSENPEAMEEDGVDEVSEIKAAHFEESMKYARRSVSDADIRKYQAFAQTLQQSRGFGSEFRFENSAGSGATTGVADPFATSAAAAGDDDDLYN
UniProt P56766: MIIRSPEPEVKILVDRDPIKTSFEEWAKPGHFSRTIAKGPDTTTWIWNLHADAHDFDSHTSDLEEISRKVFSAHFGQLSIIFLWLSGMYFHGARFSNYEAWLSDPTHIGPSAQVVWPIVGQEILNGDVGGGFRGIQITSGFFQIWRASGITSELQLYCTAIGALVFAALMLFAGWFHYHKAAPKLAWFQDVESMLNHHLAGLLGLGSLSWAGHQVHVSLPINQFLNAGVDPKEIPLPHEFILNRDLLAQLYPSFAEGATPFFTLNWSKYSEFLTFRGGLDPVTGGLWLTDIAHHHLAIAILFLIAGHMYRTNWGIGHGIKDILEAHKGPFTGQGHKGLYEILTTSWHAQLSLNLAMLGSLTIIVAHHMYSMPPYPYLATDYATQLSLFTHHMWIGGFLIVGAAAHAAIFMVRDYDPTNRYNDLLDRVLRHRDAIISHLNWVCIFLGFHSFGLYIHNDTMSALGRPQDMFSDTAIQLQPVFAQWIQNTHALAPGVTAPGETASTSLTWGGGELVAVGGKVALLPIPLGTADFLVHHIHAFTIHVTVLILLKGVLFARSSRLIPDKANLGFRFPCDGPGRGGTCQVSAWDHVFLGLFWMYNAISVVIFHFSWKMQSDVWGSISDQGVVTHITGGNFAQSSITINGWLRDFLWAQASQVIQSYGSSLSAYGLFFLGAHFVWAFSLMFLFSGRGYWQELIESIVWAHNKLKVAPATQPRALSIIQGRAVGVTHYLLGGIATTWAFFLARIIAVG

binding [1]: binds
binding [2]: binds
Substance: PsaA (chloroplast-encoded photosystem I subunit) (from UniProt P56766 1-750)
